From the supplement of paper PMC10727501 come the findings set out here.

What all share (details): 10 µM; pre-incubation: 30-90 min
In test [1] the test system is Danio rerio larvae (5 dpf, TLF). Nature of the test: OMR-Perf (SSMD vs DMSO vehicle); higher = higher than vehicle (e.g. higher dark-flash O-bend response probability, or better optomotor performance).
For test [2] the test system is unchanged. Description: Prob-Test (SSMD vs DMSO vehicle); higher = higher than vehicle (e.g. higher dark-flash O-bend response probability, or better optomotor performance).
Test [3] has the same test system. Nature of the test: Prob-Naive (SSMD vs DMSO vehicle); higher = higher than vehicle (e.g. higher dark-flash O-bend response probability, or better optomotor performance).
Test [4] shares this test system. Description: Prob-Train (SSMD vs DMSO vehicle); higher = higher than vehicle (e.g. higher dark-flash O-bend response probability, or better optomotor performance).

SMILES strings stand for the structures. This is one part of the list. Single values are uncertain here, since repeats match poorly.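 Free-swimming zebrafish larvae were scored for O-bend response probability to dark flashes (naive: first five; training: remaining flashes of four 60-flash blocks; test: later 60-flash block) and for turning toward alternating leftward/rightward LED motion (OMR). Six treated larvae were compared with sixty 0.1% DMSO controls; |SSMD|≥2 defined a hit.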

In test [1], `Cc1cc(NS(=O)(=O)c2ccc(N)cc2)no1` [Sulfamethoxazole] had an OMR-Perf of -0.193. Moreover, the Prob-Test in test [2] stood at 0.176. Moreover, in test [3], the Prob-Naive worked out at 0. Also, the Prob-Train in test [4] was 0.19.

Take `NC[C@H]1O[C@H](O[C@H]2[C@@H](O)[C@@H](O[C@H]3O[C@H](CO)[C@@H](O)[C@H](N)[C@@H]3O)[C@H](N)C[C@@H]2N)[C@@H](N)C[C@@H]1O` [Tobramycin]: the OMR-Perf in test [1] was -0.203. The Prob-Test in test [2] is -0.182. For the same molecule, the Prob-Naive in test [3] was -0.0745. The Prob-Train in test [4] is -0.624.

`CC(C)[C@H](O)C(=O)N[C@@H](C)C(=O)N[C@H]1C(=O)N(C)CCc2ccccc21` had an OMR-Perf in test [1] of 0.205. The Prob-Test in test [2] is -0.0941. In addition, in test [3], the Prob-Naive turned out to be 0.449. The molecule further displayed a Prob-Train in test [4] of 0.0619.

Molecule `CCOC(=O)C1=C[C@@]2(CC)CCCN3CCc4c(n1c1ccccc41)[C@@H]32` [Vinpocetine (Cavinton)] had an OMR-Perf in test [1] of -0.501. In test [2], this molecule showed a Prob-Test of -0.998. The same molecule gave a Prob-Naive in test [3] of -0.0405. The same molecule showed a Prob-Train in test [4] of -1.36.

Molecule `COc1cc2c(cc1OC)CC(=O)N(CCCN(C)C[C@@H]1Cc3cc(OC)c(OC)cc31)CC2.Cl` [Ivabradine HCl] came in with an OMR-Perf in test [1] of 0.336. In test [2], the Prob-Test turned out to be 0.0848. The molecule also showed a Prob-Naive in test [3] of -0.336. The same molecule displayed a Prob-Train in test [4] of 0.105.

Take `Nc1nc(F)nc2c1ncn2[C@@H]1O[C@H](COP(=O)(O)O)[C@@H](O)[C@@H]1O` [Fludarabine Phosphate]: the OMR-Perf in test [1] was -0.242. In test [2], this molecule registered a Prob-Test of 0.0841. For the same molecule, the Prob-Naive in test [3] stood at 0.0529. In test [4], this molecule gave a Prob-Train of -0.254.

Regarding `CN(C)CCCN1c2ccccc2CCc2ccc(Cl)cc21.Cl` [Clomipramine HCl], in test [1], the OMR-Perf is -1.17. In test [2], this molecule displayed a Prob-Test of -1.37. The molecule also had a Prob-Naive in test [3] of -1.1. The molecule also yielded a Prob-Train in test [4] of -1.56.

`COc1ccc(-n2c(C)c([N+](=O)[O-])c3ccc(O)cc32)cc1` yielded an OMR-Perf in test [1] of 0.259. In test [2], this molecule came in with a Prob-Test of -0.218. The same molecule yielded a Prob-Naive in test [3] of -0.759. For the same molecule, the Prob-Train in test [4] is -1.22.

Molecule `Cc1cc(C)c(CNC(=O)c2cc(-c3ccc(CN4CCOCC4)cc3)cc3c2cnn3C2CCCC2)c(=O)[nH]1` yielded an OMR-Perf in test [1] of -0.252. The same molecule came in with a Prob-Test in test [2] of 0.305. In test [3], this molecule registered a Prob-Naive of 0. This molecule also gave a Prob-Train in test [4] of 0.0861.

Take `CCC1=C(C)CN(C(=O)NCCc2ccc(S(=O)(=O)NC(=O)N[C@H]3CC[C@H](C)CC3)cc2)C1=O` [Glimepiride]: in test [1], the OMR-Perf is -0.413. In test [2], this molecule showed a Prob-Test of 0.406. Besides, the Prob-Naive in test [3] was -0.117. The molecule further registered a Prob-Train in test [4] of -0.201.

In the case of `CC(C)CN(C[C@@H](O)[C@H](Cc1ccccc1)NC(=O)O[C@H]1CCOC1)S(=O)(=O)c1ccc(N)cc1` [Amprenavir], in test [1], the OMR-Perf is -0.116. In addition, in test [2], the Prob-Test is -0.0494. In test [3], the Prob-Naive worked out at 0.0934. For the same molecule, the Prob-Train in test [4] was determined as 0.0441.

For `Cc1nc(NC(=O)N2CCC[C@H]2C(N)=O)sc1-c1ccnc(C(C)(C)C(F)(F)F)c1`, the OMR-Perf in test [1] came to 0.0687. In test [2], this molecule displayed a Prob-Test of -0.248. This molecule also registered a Prob-Naive in test [3] of 0.0692. Besides, in test [4], the Prob-Train is -0.137.

The molecule `O=C(Nc1ccccc1)c1cc([N+](=O)[O-])ccc1Cl` came in with an OMR-Perf in test [1] of -0.664. The molecule also yielded a Prob-Test in test [2] of -0.0745. This molecule also showed a Prob-Naive in test [3] of -0.554. In test [4], this molecule had a Prob-Train of 0.104.

For `O=P(O)(O)C(O)(Cc1cccnc1)P(=O)(O)O` [Risedronic acid (Actonel)], the OMR-Perf in test [1] is -0.444. In test [2], this molecule yielded a Prob-Test of -0.465. For the same molecule, the Prob-Naive in test [3] stood at 0.131. In test [4], this molecule yielded a Prob-Train of -0.0881.

`CC[C@H]1OC(=O)[C@H](C)[C@@H](O[C@@H]2C[C@@](C)(OC)[C@H](O)[C@@H](C)O2)[C@H](C)[C@@H](O[C@H]2OC(C)C[C@@H](N(C)C)[C@H]2O)[C@@](C)(O)C[C@@H](C)C(=O)[C@H](C)[C@@H](O)[C@]1(C)O` (stereo not given in full) [Erythromycin] came in with an OMR-Perf in test [1] of -0.139. Also, the Prob-Test in test [2] came out at 0.272. Further, the Prob-Naive in test [3] is 0.549. In test [4], this molecule registered a Prob-Train of 0.532.

`COC(=O)C1=C(C)NC(C)=C(C(=O)OC)C1c1ccccc1[N+](=O)[O-]` [Nifedipine] had an OMR-Perf in test [1] of -0.137. Besides, in test [2], the Prob-Test is -0.32. This molecule came in with a Prob-Naive in test [3] of 0.184. For the same molecule, the Prob-Train in test [4] is -0.52.

The molecule `CNCCCC12CCC(c3ccccc31)c1ccccc12.Cl` [Maprotiline HCl] registered an OMR-Perf in test [1] of -0.525. Besides, in test [2], the Prob-Test is -0.421. Besides, the Prob-Naive in test [3] was 0.644. The same molecule showed a Prob-Train in test [4] of -0.103.

The molecule `CC1(C)[C@@H](OC(=O)CCC(=O)O)CC[C@]2(C)[C@H]3C(=O)C=C4[C@@H]5C[C@@](C)(C(=O)O)CC[C@]5(C)CC[C@@]4(C)[C@]3(C)CC[C@@H]12` [Carbenoxolone Sodium] displayed an OMR-Perf in test [1] of -0.377. Besides, the Prob-Test in test [2] was -0.522. The Prob-Naive in test [3] was found to be 0.0912. For the same molecule, in test [4], the Prob-Train was -0.239.

`CC(=O)Nc1ccc(C(=O)Nc2ccccc2N)cc1` [CI994 (Tacedinaline)]: the OMR-Perf in test [1] is -0.77. In test [2], this molecule returned a Prob-Test of 0.0421. The molecule further registered a Prob-Naive in test [3] of -0.736. This molecule displayed a Prob-Train in test [4] of -0.184.

In test [1], `Cc1cc(Nc2nc(N[C@@H](C)c3ccc(F)cc3)c(C#N)cc2F)n[nH]1` came in with an OMR-Perf of -1.02. In addition, in test [2], the Prob-Test is -1.35. The molecule further showed a Prob-Naive in test [3] of -0.13. Besides, the Prob-Train in test [4] is 0.0261.

On to `Cc1ccc(-c2nn(C(C)(C)C)c3ncnc(N)c23)cc1`, for which, in test [1], the OMR-Perf is -0.237. This molecule also gave a Prob-Test in test [2] of -1.57. The same molecule yielded a Prob-Naive in test [3] of -2.46. This molecule also came in with a Prob-Train in test [4] of -2.35.

In the case of `Oc1cc2c(cc1O)[C@@H]1c3ccc(O)c(O)c3OC[C@]1(O)C2` [Hematoxylin], in test [1], the OMR-Perf is -0.108. In test [2], this molecule yielded a Prob-Test of -0.269. Besides, in test [3], the Prob-Naive is -0.311. The Prob-Train in test [4] was -0.228.

In the case of `Cc1cc(NC(=O)C2=C(O)c3ccccc3S(=O)(=O)N2C)no1` [Isoxicam], the OMR-Perf in test [1] came out at 0.129. Moreover, in test [2], the Prob-Test worked out at 0.0026. For the same molecule, the Prob-Naive in test [3] is -0.0812. In test [4], this molecule registered a Prob-Train of -0.0233.

The molecule `CO[C@H]1O[C@H]2O[C@@]3(C)CC[C@H]4[C@@H](C)CC[C@@H]([C@@H]1C)[C@@]24OO3` [Artemether] showed an OMR-Perf in test [1] of -0.455. Besides, the Prob-Test in test [2] was 0.563. The molecule also yielded a Prob-Naive in test [3] of -0.0101. This molecule gave a Prob-Train in test [4] of -0.0621.

With `CCc1ccc(CCOc2ccc(CC3SC(=O)NC3=O)cc2)nc1` (stereo not given) [Pioglitazone], in test [1], the OMR-Perf is -0.254. Moreover, in test [2], the Prob-Test was -0.799. Moreover, the Prob-Naive in test [3] was -0.163. The same molecule registered a Prob-Train in test [4] of -0.786.

Take `CN(c1ncccc1CNc1nc(Nc2ccc3c(c2)CC(=O)N3)ncc1C(F)(F)F)S(C)(=O)=O.O=S(=O)(O)c1ccccc1`: the OMR-Perf in test [1] was found to be 0.0622. In addition, the Prob-Test in test [2] was -0.113. The Prob-Naive in test [3] amounted to 0.515. In test [4], this molecule yielded a Prob-Train of -0.165.

In turn, `Cc1ccc(NC(=O)c2ccc(CN3CCN(C)CC3)cc2)cc1Nc1nccc(-c2cccnc2)n1` [Imatinib (STI571)] returned an OMR-Perf in test [1] of 0.399. Besides, in test [2], the Prob-Test was -0.0259. This molecule gave a Prob-Naive in test [3] of 0.289. Besides, the Prob-Train in test [4] is -0.275.

In turn, `NC[C@H]1O[C@H](O[C@H]2[C@H](O)[C@@H](O[C@H]3O[C@H](CO)[C@@H](O)[C@H](N)[C@H]3O)[C@H](N)C[C@@H]2N)[C@H](N)[C@@H](O)[C@@H]1O` [Bekanamycin] registered an OMR-Perf in test [1] of 0.167. The same molecule registered a Prob-Test in test [2] of 0.161. In test [3], this molecule had a Prob-Naive of 0.298. This molecule gave a Prob-Train in test [4] of 0.213.

In the case of `O=C1c2ccc(Nc3ccc(F)cc3F)cc2CCc2ccc(OC[C@H](O)CO)cc21` [Skepinone-L], the OMR-Perf in test [1] was -0.294. Further, in test [2], the Prob-Test was -1.09. The same molecule registered a Prob-Naive in test [3] of -0.102. In test [4], this molecule registered a Prob-Train of -0.383.

`CCN1CCN(c2ccc(Nc3cc(N(C)C(=O)Nc4c(Cl)c(OC)cc(OC)c4Cl)ncn3)cc2)CC1` showed an OMR-Perf in test [1] of -0.532. In test [2], this molecule had a Prob-Test of -0.498. The same molecule gave a Prob-Naive in test [3] of -0.397. The same molecule yielded a Prob-Train in test [4] of 0.0398.
